Measured values published in patent US6696559B1 (The Regents of the University of California, priority 1996, dated 2004).
Where no end group is shown, it is not given here.

Experiment: general procedure: Fmoc solid-phase peptide synthesis; Fmoc-L-Valine-PEG-PS
Details: whole synthesis, scale 0.4 mmol

Sequence: YKIIQQWPHYRRV
- isolated yield: 31.4%
